# In PubChem BioAssay AID1117319 (Southern Research Institute, 2015):
# Chains of the proteins cited; added tags and fusions are not shown. Lines headed by an entry give the natural chain unless they say otherwise; changes in a name come on top.
# UniProt P69720: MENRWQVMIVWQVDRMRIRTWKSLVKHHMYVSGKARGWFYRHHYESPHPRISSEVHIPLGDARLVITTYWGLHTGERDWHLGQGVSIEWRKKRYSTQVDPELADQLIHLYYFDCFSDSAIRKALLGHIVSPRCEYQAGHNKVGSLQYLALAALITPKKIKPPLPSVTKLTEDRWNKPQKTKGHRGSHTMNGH
# UniProt P69721: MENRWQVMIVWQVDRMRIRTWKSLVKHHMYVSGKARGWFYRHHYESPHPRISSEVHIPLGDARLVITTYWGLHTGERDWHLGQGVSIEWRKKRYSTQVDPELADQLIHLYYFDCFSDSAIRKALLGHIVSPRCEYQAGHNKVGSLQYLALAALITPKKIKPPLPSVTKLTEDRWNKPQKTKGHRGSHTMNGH
# UniProt P69722: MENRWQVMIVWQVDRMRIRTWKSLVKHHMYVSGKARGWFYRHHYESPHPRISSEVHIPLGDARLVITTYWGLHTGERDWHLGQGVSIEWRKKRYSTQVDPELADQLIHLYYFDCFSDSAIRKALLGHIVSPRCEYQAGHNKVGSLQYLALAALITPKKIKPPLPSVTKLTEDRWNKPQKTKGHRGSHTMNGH
# UniProt P69723: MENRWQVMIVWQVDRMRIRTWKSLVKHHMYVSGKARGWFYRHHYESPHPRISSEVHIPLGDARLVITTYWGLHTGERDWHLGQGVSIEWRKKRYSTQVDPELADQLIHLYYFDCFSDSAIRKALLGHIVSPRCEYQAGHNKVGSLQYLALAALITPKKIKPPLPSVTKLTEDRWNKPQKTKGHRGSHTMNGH
# UniProt Q9HC16: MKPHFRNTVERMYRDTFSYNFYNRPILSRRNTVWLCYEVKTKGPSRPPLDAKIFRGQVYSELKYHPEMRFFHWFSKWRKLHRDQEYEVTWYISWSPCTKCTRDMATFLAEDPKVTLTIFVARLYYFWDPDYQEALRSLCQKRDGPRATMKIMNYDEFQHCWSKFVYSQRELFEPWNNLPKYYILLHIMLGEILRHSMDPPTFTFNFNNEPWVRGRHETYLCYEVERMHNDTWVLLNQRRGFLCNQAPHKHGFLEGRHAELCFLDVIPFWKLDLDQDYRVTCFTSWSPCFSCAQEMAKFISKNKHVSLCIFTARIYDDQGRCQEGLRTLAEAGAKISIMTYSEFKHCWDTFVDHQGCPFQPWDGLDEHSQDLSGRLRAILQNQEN
# Hit rate of the full screen: of about 260,000 compounds, about 1,500 (0.58%) were called active. Inconclusive results, whose numbers are uncertain, are shown with a selection of clear calls.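 The calls were made as follows: active = inhibition above a set limit at one or more doses, reproduced on every date tested; inconclusive = results disagree between test dates, or hit never tested in dose response; inactive = the rest.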
# Target: Virion infectivity factor (Human immunodeficiency virus type 1 group M subtype B (isolate BH10)) + Virion infectivity factor (Human immunodeficiency virus type 1 group M subtype B (isolate BRU/LAI)) + Virion infectivity factor (Human immunodeficiency virus type 1 group M subtype B (isolate PCV12)) + Virion infectivity factor (Human immunodeficiency virus type 1 group M subtype B (isolate HXB2)) + DNA dC->dU-editing enzyme APOBEC-3G (Homo sapiens) (UniProt P69720+P69721+P69722+P69723+Q9HC16)
# Test: inhibitors of Vif binding to APOBEC3G peptide, primary screen, biochemical, TR-FRET, GST-Vif 1-94, biotin-A3G peptide, dose response retest (AID 1117319);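 also: Vif residues 1-94 fused to GST binding biotinylated APOBEC3G peptide 110-148; 0% = full assay without inhibitor and 100% = GST in place of GST-Vif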
# Settings: active compounds read high
row,Structure (SMILES),inhibition
1,COCCn1c(C)cc(C(=O)CSc2ncnc3sc4c(c23)CCC4)c1C,inconclusive: 44.4%
2,Cc1ccnc(NS(=O)(=O)c2ccc(NC(=O)c3cncc(Br)c3)cc2)n1,inconclusive: 43%
3,Cc1cc(C(=O)COC(=O)c2ccc[nH]c2=O)c(C)n1-c1ccccc1F,inconclusive: 35.6%
4,COc1ccc(N2CCN(C(C)C(=O)Nc3nnc(C)s3)CC2)cc1 (stereo not drawn),inconclusive: 33.7%
5,O=C(NCCc1nc2ccccc2[nH]1)c1ccc([N+](=O)[O-])cc1,inconclusive: 38.3%
6,CC(C)n1cc(CN2CCCC(CNS(=O)(=O)c3cccc4cccnc34)C2)cn1 (stereo not drawn),inactive: 10.9%
7,COc1ccc(CN2C(=O)CSC2c2ccccn2)cc1 (stereo not drawn),inconclusive: 55.6%
8,O=c1n(-c2ccccc2)c(=O)n2n1CC(O)C2,inconclusive: 46.8%
9,C=CS(=O)(=O)c1sc(Cl)c(N2CCOCC2)c1[N+](=O)[O-],inconclusive: 47.1%
10,COc1ccc(OC)c(N(CC(=O)NCc2cccnc2)S(C)(=O)=O)c1,inconclusive: 42.2%
11,Cc1nonc1C(=O)N/N=C/c1cccc(O)c1,inconclusive: 40.6%
12,COc1ccc(C2(O)CN(c3ccccc3)C3=[N+]2CCS3)cc1OC (stereo not drawn),inconclusive: 38.1%
13,Oc1c(I)cc(I)c2cccnc12,inconclusive: 46.4%
14,CCOC(=O)CC(Nc1nc(N2CCOCC2)nc(N2CCOCC2)n1)c1ccccc1Cl (stereo not drawn),inconclusive: 33.4%
15,Cc1ccc(C)c(/C(O)=C2\C(=O)C(=O)N(CCCN3CCOCC3)C2c2cccnc2)c1 (stereo not drawn),inactive: -1.34%
16,COc1ccc(N=C(C)C2=C(O)COC2=O)cc1,inconclusive: 51.4%
17,COC(=O)C1=C(O)/C(=C\c2cc(C)n(-c3ccccc3F)c2C)N=C1C,inactive: 25.1%
18,CC[C@@H]1CCCCc2ccccc2[C@@H](C(=O)C[C@@H](O)CC(C)=O)OC1=O,inactive: -2.17%
19,COc1ccc(NS(=O)(=O)c2cc(C(=O)N3CCN(C(C)=O)CC3)ccc2Cl)cc1,inconclusive: 45.2%
20,Cc1cccc(N2C(=O)CC(N(O)c3ccccc3)C2=O)c1 (stereo not drawn),inactive: 3.45%
21,Cn1c(N)c(C(=O)COC(=O)C2CCC(C(C)(C)C)CC2)c(=O)n(C)c1=O (stereo not drawn),inactive: 15.1%
22,O[C@H]1C[C@H](c2ccccc2)N(CC2CCCCC2)C[C@@H]1n1cc(C2CC2)nn1,inactive: -3.24%

row,Structure (SMILES),inhibition
1,CC(C)C1C(C#N)=C(N)SC(N)=C1C#N,inconclusive: 59.4%
2,Cc1c(C#N)c(O)[nH]c(=O)c1N=Nc1ccc(S(N)(=O)=O)cc1,inactive: 3.16%
3,CC(C)N1CC(O)=C(c2nc3ccccc3[nH]2)C1=N,inconclusive: 33.6%
4,Cc1ccc(C2/C(=C(\O)c3ccc4c(c3)OCCO4)C(=O)C(=O)N2CC2CCCO2)cc1 (stereo not drawn),inactive: -0.97%
5,O=C(COc1ccc(Cl)cc1Cl)Nc1ccc(CN2CCCCC2)cc1,inconclusive: 50.4%
6,COc1ccc(NC(=O)/C(=C/c2ccc(OC(C)=O)c(OC)c2)NC(C)=O)cc1,inconclusive: 42.1%
7,CCCCNC(=O)c1ccc2c(SCC(=O)O)c3c(nc2c1)CCCC3,inconclusive: 50.5%
8,Cc1ccc(S(=O)(=O)N2CCN(Cc3cc(C(C)C)ccc3O)CC2)cc1,inconclusive: 36.8%
9,COc1ccccc1C1C=C(c2ccc(Cl)cc2)Nc2nc(NS(C)(=O)=O)nn21 (stereo not drawn),inconclusive: 33.4%
10,O=C(CCl)c1ccc2c(c1)CCN2C(=O)C1CCCCC1,inconclusive: 44%
11,N=C1/C(=C/c2ccc(-c3cccc(C(=O)O)c3)o2)C(=O)N=C2SC(CC(=O)N3CCOCC3)=NN12,inconclusive: 42.8%
12,O=C(NC1CCCCC1)c1c2c(nc3ccccc13)CCC2,inconclusive: 36.8%
13,CC(OC(=O)Cn1c(C(F)(F)F)nc2ccccc21)C(=O)N1CCCc2ccccc21 (stereo not drawn),inconclusive: 59.9%
14,Cc1c(CN2CCCC(C(=O)c3cccc(Cl)c3)C2)c(=O)n(-c2ccccc2)n1C (stereo not drawn),inconclusive: 42.4%
15,CCN(C(=O)CN1CCN(c2ccccc2O)CC1)c1c(N)n(Cc2ccccc2)c(=O)[nH]c1=O,inconclusive: 58%
16,Cc1c(NC(=O)C(C)Sc2ccc3ccccc3n2)c(=O)n(-c2ccccc2)n1C (stereo not drawn),inconclusive: 34.1%
17,C=CCn1c2ccccc2c2nnc(SCC(=O)OCN3C(=O)c4ccccc4C3=O)nc21,inconclusive: 58%
18,Cc1n[nH]c(=S)n(NC(=O)CC(=O)Nn2c(=S)[nH]nc(C)c2=O)c1=O,inconclusive: 37.4%
19,COc1cccc(NC(=O)c2ccc(S(=O)(=O)NCc3cccnc3)cc2)c1,inconclusive: 62.7%
20,CC(OC(=O)c1cccc(NS(C)(=O)=O)c1)C(=O)Nc1ccc2c(c1)OCO2 (stereo not drawn),inconclusive: 54.8%
21,Cc1ccc(NC(=O)C2C(C(=O)O)C3C=CC2C32CC2)cc1 (stereo not drawn),inconclusive: 42.3%
22,Cc1nn2c(N)c(C#N)cnc2c1-c1ccccc1,inconclusive: 38.6%

row,Structure (SMILES),inhibition
1,Clc1ccccc1Cn1c(/C=C/c2ccco2)nc2ccccc21,inconclusive: 47.8%
2,COc1cc(/C=C2\SC(=O)NC2=O)ccc1Oc1ccc([N+](=O)[O-])cc1[N+](=O)[O-],inconclusive: 43.1%
3,S=c1nc2c(n[nH]1)c1ccccc1n2CCc1ccccc1,inconclusive: 33%
4,COC(=O)c1nn(-c2ccccc2)c(Sc2ccc(OC)cc2)c1/C=N/O,inconclusive: 33.5%
5,CN(C(=O)C(Cl)Cl)C1CC2C=CC1C2 (stereo not drawn),inconclusive: 33.1%
6,CCOC(=O)c1oc2ccc(S(=O)(=O)n3nc(-c4ccc(Cl)cc4)cc3N)cc2c1C,inconclusive: 59.3%
7,C/C=C\C(=O)Nc1cccc(C2=NOC3(C2)C[C@H](C(N)=O)N(C(=O)/C=C/CC)C3)c1 (stereo partly drawn),inactive: 5.75%
8,CC(NC(=O)OC(C)(C)C)C(=O)Oc1cc2oc(=O)cc(-c3ccccc3)c2cc1Cl (stereo not drawn),inconclusive: 54%
9,CN1C(=O)C(N=Nc2ccccc2C(=O)O)N(C)C1=S (stereo not drawn),inactive: 30.3%
10,Cc1cc(C)cc(NC(=O)CSc2nc3[nH]ncc3c(=O)[nH]2)c1,inconclusive: 37.6%
11,CCCn1c(SCC(=O)NC)nnc1C(C)C,inactive: 6.34%
12,CCc1nnc(NC(=O)CSc2nc3c(cc2C#N)CCC3)s1,inconclusive: 50.5%
13,CS(=O)(=O)N(CCc1ccccc1)CC(=O)Nc1ccc2c(c1)OCO2,inactive: 13.8%
14,CN(C)c1ccc(C(=O)c2ccccc2C(=O)O)c(O)c1,inconclusive: 38.5%
15,COc1cc(NC(=O)C2CCCCC2)c(OC)cc1NC(=O)c1ccco1,inconclusive: 24.5%
16,Cc1ccc(S(=O)(=O)NCCNC(=O)c2ccccc2)cc1,inconclusive: 34.6%
17,Cn1c(SCC(=O)Nc2ccccc2)nnc1-c1ccc2nonc2c1,inconclusive: 58.5%
18,C=CCn1c(C)cc(-c2csc(NC)n2)c1C,inconclusive: 42%
19,Cc1cc(C)cc(OCc2ccc(C(=O)N3N=C(C(F)F)CC3(O)C(F)F)o2)c1 (stereo not drawn),inconclusive: 33%
20,O=C1C2CCCN2C(=O)N1CCCCN1CCN(c2cccc(Cl)c2)CC1 (stereo not drawn),inconclusive: 51.9%
21,Cc1nc2ccc(NC(=O)N3CCCCC3)cc2nc1C,inactive: 1.22%
22,CC(C)c1ccc(C2CC(=O)N3CN(Cc4ccco4)CSC3=C2C#N)cc1 (stereo not drawn),inconclusive: 54%

# Quoted at random: four records from the list
row,Structure (SMILES),inhibition
18,C=CCn1c(C)cc(-c2csc(NC)n2)c1C,inconclusive: 42%
11,CCCn1c(SCC(=O)NC)nnc1C(C)C,inactive: 6.34%
21,Cc1ccc(NC(=O)C2C(C(=O)O)C3C=CC2C32CC2)cc1 (stereo not drawn),inconclusive: 42.3%
22,CC(C)c1ccc(C2CC(=O)N3CN(Cc4ccco4)CSC3=C2C#N)cc1 (stereo not drawn),inconclusive: 54%

# Filtered by structure: the compounds so far with a nitro group on carbon.
row,Structure (SMILES),inhibition
5,O=C(NCCc1nc2ccccc2[nH]1)c1ccc([N+](=O)[O-])cc1,inconclusive: 38.3%
9,C=CS(=O)(=O)c1sc(Cl)c(N2CCOCC2)c1[N+](=O)[O-],inconclusive: 47.1%
2,COc1cc(/C=C2\SC(=O)NC2=O)ccc1Oc1ccc([N+](=O)[O-])cc1[N+](=O)[O-],inconclusive: 43.1%

# The list continues:

row,Structure (SMILES),inhibition
1,O=C1CC(Cc2ccccc2)C(=O)N1c1ncccn1 (stereo not drawn),inconclusive: 37.5%
2,O=c1oc2ccccc2nc1/C=C(\O)c1ccc(Br)cc1,inconclusive: 34.3%
3,O=C1CCC([N+](=O)[O-])C(c2cccc3ccccc23)N1 (stereo not drawn),inconclusive: 46.2%
4,CCCc1nnc2n1N=C(c1ccc([N+](=O)[O-])cc1)CS2,inconclusive: 34.5%
5,Cc1nc(NS(=O)(=O)c2cccs2)c2c3c(sc2n1)CCC3,inconclusive: 43.1%
6,CSCCC(NC(N)=O)C(=O)N(C)CC(=O)Nc1cc(C)ccc1C (stereo not drawn),inconclusive: 56.7%
7,O=C(CN1CCN(Cc2ccc(Cl)cc2)CC1)N/N=C/c1ccccc1F,inconclusive: 38.7%
8,COC(=O)CCCC1=CC2=CC(=O)C(C)(OC(=O)C3CCCC3)C(=O)C2=CO1 (stereo not drawn),inconclusive: 60.9%
9,COC(=O)c1ccccc1NS(=O)(=O)c1ccc(O)c(C(=O)O)c1,inconclusive: 35.7%
10,Cc1ncc(CN2CCCC(CCC(=O)NCc3ccc(F)c(F)c3)C2)s1 (stereo not drawn),inconclusive: 34.3%
11,Cc1oc(-c2cccc(Cl)c2)nc1CN1CCCC(C(=O)NC(C)c2ccc3c(c2)OCCO3)C1 (stereo not drawn),inconclusive: 40.3%
12,O=C(CN(C(=O)Cn1nnc(-c2ccc(F)cc2)n1)c1ccc(F)c(Cl)c1)NCC1CCCO1 (stereo not drawn),inconclusive: 41.3%
13,CCC(=O)Nc1ccc(NC(=O)c2cccc3c(Br)cccc23)cc1,inconclusive: 48.7%
14,COC(=O)C(C)(C)ONC(=O)Nc1ccccc1Br,inactive: 23.3%
15,COc1ccc(C(=O)NCc2cccnc2)cc1Br,inactive: 7.76%
16,C=CCNc1nc2c(c(=O)[nH]c(=O)n2C)n1Cc1cccc(C)c1,inactive: -3.73%
17,CSc1cc(-c2ccc(Cl)cc2)[nH]c(=O)c1C#N,inconclusive: 61.8%
18,O=C(NCc1ccco1)c1csc(Nc2ccccc2Cl)n1,inactive: -7.13%
19,CC(=O)c1ccc(N2CCN(C(=O)c3cc(C)on3)CC2)cc1,inactive: 11.8%
20,CCC1CCCCN1C(=O)CSc1nnc(N)s1 (stereo not drawn),inactive: -4.63%
21,CC(C)c1cc(CNC(=O)C2CCC(=O)N(Cc3ccccc3F)C2)on1 (stereo not drawn),inconclusive: 45.9%
22,COc1ccc(C(=O)N2CCCC(Nc3ccc(C)c(C)c3)C2)cc1F (stereo not drawn),inconclusive: 39.3%
